# From PMC5827114, “A cryptic RNA-binding domain mediates Syncrip recognition and exosomal partitioning of miRNA targets”
# Construct, isoform or probe ends are uncertain for at least one entry. The direction of at least one scale is not stated here. Where a protein sequence is shown, tags need not be part of it.
# Target: T1, Syncrip eR1R2R3 (Homo sapiens) (UniProt O60506)
# T1 sequence (looked up): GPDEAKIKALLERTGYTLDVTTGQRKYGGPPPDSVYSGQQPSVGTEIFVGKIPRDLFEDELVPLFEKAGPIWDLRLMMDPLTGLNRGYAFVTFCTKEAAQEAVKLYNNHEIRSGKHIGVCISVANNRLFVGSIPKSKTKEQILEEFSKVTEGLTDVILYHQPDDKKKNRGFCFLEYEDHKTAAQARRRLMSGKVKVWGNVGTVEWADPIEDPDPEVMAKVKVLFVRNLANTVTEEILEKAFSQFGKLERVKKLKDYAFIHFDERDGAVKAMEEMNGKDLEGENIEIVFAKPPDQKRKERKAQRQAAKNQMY
# Assay: BLI
# Conditions: BLI: 5 mM Tris-HCl pH 7.4, 50 mM NaCl, 1 mM TCEP, 0.5 mg/mL BSA, 30 C; recombinant protein; residues 118-428; protein details: His6-SUMO or His, removed by HRV 3C; label: 5'-biotin (BLI); scale: fold lower affinity than NeR1R2R3
sequence,measurement,value
UCACUUUGUAGACCAGGCUGG [miR-3470 full-length],binding signal,6
